Measurements reported in PubChem BioAssay AID330 (DTP/NCI, 2004).
The list does not hold the whole screen: it is rich in T/C values a quarter to a half above the control, in often repeated tests (any T/C) and in doses without a T/C. Further doses and runs are listed elsewhere. T/C: endpoint of the treated group in % of that of the vehicle group. Some doses have a count of surviving animals in place of a T/C: the source files T/C as zero there, which appears to mark a toxic dose or a test without result, not a measured value. Some survivor counts are full or nearly so, which does not show that the dose was tolerated: survival well below the control is almost never listed, so the zero probably covers shortened survival too. Survivors were counted at the toxicity check, usually on the fifth day, unless a day is given; later deaths do not show. Schedules are NCI's codes, taken here to give the interval after Q, in days (D) or hours (H), and the number of doses after X. Some entries hold several experiments; the results are listed from low to high. Where survival is the endpoint, the PubChem record calls one and a half times the control and up active, and a quarter to a half above the control has no call in these data; cut-offs in other NCI protocols can differ. Counts like (3×) stand for listed records that agree. Some T/C values carry the count of animals alive at the toxicity check (mostly the fifth day); where none is given, no animal had died by that day.

System: P388 leukemia ip, CD2F1 mice, survival T/C
Assay: NCI In Vivo Anticancer Drug Screen. Data for tumor model P388 Leukemia (intraperitoneal) in CD2F1 (CDF1) mice
Settings: T/C endpoint: median survival time, higher T/C = longer survival
[1] = dose: 25.0 mg/kg/injection, schedule: Q04DX003 (ip), vehicle: saline with Tween-80
[2] = dose: 50.0 mg/kg/injection, schedule: Q04DX003 (ip), vehicle: saline with Tween-80
[3] = dose: 200.0 mg/kg/injection, schedule: Q01DX005 (ip), vehicle: saline with Tween-80
[4] = dose: 100.0 mg/kg/injection, schedule: Q01DX009 (ip), vehicle: Klucel (hydroxypropylcellulose) (HPC)
[5] = dose: 200.0 mg/kg/injection, schedule: Q01DX009 (ip), vehicle: Klucel (hydroxypropylcellulose) (HPC)
[6] = dose: 100.0 mg/kg/injection, schedule: Q01DX009 (ip), vehicle: saline with Tween-80
[7] = dose: 200.0 mg/kg/injection, schedule: Q01DX009 (ip), vehicle: saline with Tween-80
[8] = dose: 200.0 mg/kg/injection, schedule: Q01DX005 (ip), vehicle: Klucel (hydroxypropylcellulose) (HPC)
[9] = dose: 100.0 mg/kg/injection, schedule: Q01DX005 (ip), vehicle: saline
[10] = dose: 200.0 mg/kg/injection, schedule: Q01DX005 (ip), vehicle: saline
[11] = dose: 400.0 mg/kg/injection, schedule: Q01DX005 (ip), vehicle: saline
[12] = dose: 100.0 mg/kg/injection, schedule: Q04DX003 (ip), vehicle: saline with Tween-80
[13] = dose: 240.0 mg/kg/injection, schedule: Q01DX005 (ip), vehicle: saline with Tween-80

NC(=S)N/N=C/c1ccncn1
survivor count [1]: 3 of 6
survivor count [2]: 3 of 6
survivor count (dose: 75.0 mg/kg/injection, schedule: Q04DX003 (ip), vehicle: Klucel (hydroxypropylcellulose) (HPC)): 5 of 6
survivor count (dose: 100.0 mg/kg/injection, schedule: Q04DX003 (ip), vehicle: Klucel (hydroxypropylcellulose) (HPC)): 1 of 6
survivor count (dose: 200.0 mg/kg/injection, schedule: Q04DX003 (ip), vehicle: Klucel (hydroxypropylcellulose) (HPC)): 0 of 6
survivor count (dose: 400.0 mg/kg/injection, schedule: Q04DX003 (ip), vehicle: Klucel (hydroxypropylcellulose) (HPC)): 0 of 6

N#CC(C(=O)C(=O)Nc1cccc(C(F)(F)F)c1)c1ccccc1 (configuration not stated)
survivor count [3]: 0 of 6

COc1ccc(/C(C[P+](c2ccccc2)(c2ccccc2)c2ccccc2)=N/OC(C)(C)OC)cc1
survivor count [4]: 0 of 6
survivor count [5]: 0 of 6

CC1=CC(=O)C(/C=C(\C)[N+](=O)[O-])=CC1=O
survivor count (dose: 50.0 mg/kg/injection, schedule: Q01DX009 (ip), vehicle: Klucel (hydroxypropylcellulose) (HPC)): 0 of 6
survivor count [4]: 0 of 6
survivor count [5]: 0 of 6

N#CN(Cc1ccccc1)Cc1ccccc1.[I][Sn]([c]1ccccc1)([c]1ccccc1)[c]1ccccc1
survivor count (dose: 12.5 mg/kg/injection, schedule: Q01DX005 (ip), vehicle: saline with Tween-80): 2 of 6
survivor count (dose: 25.0 mg/kg/injection, schedule: Q01DX005 (ip), vehicle: saline with Tween-80): 0 of 6
survivor count (dose: 50.0 mg/kg/injection, schedule: Q01DX005 (ip), vehicle: saline with Tween-80): 3 of 6
survivor count (dose: 100.0 mg/kg/injection, schedule: Q01DX005 (ip), vehicle: saline with Tween-80): 0 of 6
survivor count [3]: 0 of 6

O=CNc1ncc([N+](=O)[O-])s1
survivor count [6]: 2 of 6
survivor count [7]: 1 of 6

O=C(NC1CC1)C(Cl)Cl
survivor count [8]: 0 of 5

NC(=O)c1c[se]c(C2OC(CO)C(O)C2O)n1 (configuration not stated)
T/C (dose: 25.0 mg/kg/injection, schedule: Q01DX005 (ip), vehicle: saline): 134 and 146 % of control
T/C (dose: 50.0 mg/kg/injection, schedule: Q01DX005 (ip), vehicle: saline): 148, 158, 160, 168 % of control
T/C [9]: 157, 161, 173, 178 % of control
T/C [10]: 163, 175 (2×), 196 % of control
T/C [11]: 184, 187, 196 % of control
survivor count [11]: 6 of 6

Cc1ccc(NC(=O)N(CCCl)N=O)c(C)c1
T/C [1]: 127 % of control
survivor count [2]: 5 of 6
survivor count [12]: 0 of 6

CCOC1OCN(C(C)(C)C)CC1(C)C (configuration not stated)
T/C [6]: 135 % of control
T/C [7]: 125 % of control

C[C@]12CCC(=O)N[C@@H]1CC[C@@H]1[C@@H]2CC[C@]2(C)[C@@H](OC(=O)COc3ccc(N(CCCl)CCCl)cc3)CC[C@@H]12
T/C (dose: 5.0 mg/kg/injection, schedule: Q01DX005 (ip), vehicle: saline with Tween-80): 126 % of control
T/C (dose: 7.5 mg/kg/injection, schedule: Q01DX005 (ip), vehicle: saline with Tween-80): 144 % of control
survivor count (dose: 60.0 mg/kg/injection, schedule: Q01DX005 (ip), vehicle: saline with Tween-80): 6 of 6
survivor count (dose: 120.0 mg/kg/injection, schedule: Q01DX005 (ip), vehicle: saline with Tween-80): 5 of 6
survivor count [13]: 0 of 6

O=C1OC2C(I)C3CC1C2C3 (configuration not stated)
survivor count [6]: 5 of 6
survivor count [12]: 4 of 6

CC1=CCC(C(C)(O)C2CCC3(C)C4=C(C=C5C=CC(=O)OC(C)(C)C5CC4)CCC23C)OC1=O (configuration not stated)
survivor count (dose: 50.0 mg/kg/injection, schedule: Q01DX005 (ip), vehicle: other): 6 of 6
survivor count (dose: 100.0 mg/kg/injection, schedule: Q01DX005 (ip), vehicle: other): 6 of 6

CC(C)Cc1nccs1
T/C [7]: 125 % of control [5 of 6 alive]

O=C1C=CC(=Nc2cccc3c(N=C4C=CC(=O)O4)cccc23)O1
survivor count [8]: 3 of 6

O=C1OC(C2OC(=O)C(=O)C2C(=O)c2ccccc2Cl)C(C(=O)c2ccccc2Cl)C1=O (configuration not stated)
survivor count (dose: 60.0 mg/kg/injection, schedule: Q01DX005 (ip), vehicle: saline + Tween-80 + alcohol): 5 of 6 and 6 of 6
survivor count (dose: 120.0 mg/kg/injection, schedule: Q01DX005 (ip), vehicle: saline + Tween-80 + alcohol): 2 of 6
survivor count (dose: 240.0 mg/kg/injection, schedule: Q01DX005 (ip), vehicle: saline + Tween-80 + alcohol): 0 of 6

Nc1cnc2ccccn12
survivor count [7]: 3 of 6

ClCCN1c2ccccc2Sc2ccc3ccccc3c21
survivor count [3]: 6 of 6

CCCCCC(N)C(C)=O (configuration not stated)
survivor count (dose: 100.0 mg/kg/injection, schedule: Q01DX009 (ip), vehicle: saline): 3 of 6
survivor count [7]: 0 of 6
survivor count (dose: 400.0 mg/kg/injection, schedule: Q01DX009 (ip), vehicle: saline with Tween-80): 0 of 6

CNCCCCCc1cc(-c2ccc([N+](=O)[O-])cc2)on1
survivor count (dose: 400.0 mg/kg/injection, schedule: Q04DX003 (ip), vehicle: saline with Tween-80): 1 of 6

O=P(O)(O)OCC1(O)OCC(O)C(O)C1O (configuration not stated)
survivor count [9]: 3 of 6
survivor count [10]: 0 of 6

O=C(O)c1cc(C(=O)CCCC(=O)c2cc(C(=O)O)c(O)c3ccccc23)c2ccccc2c1O
survivor count (dose: 50.0 mg/kg/injection, schedule: Q01DX009 (ip), vehicle: saline with Tween-80): 6 of 6
survivor count [7]: 0 of 6

CCOC(=O)/C=C(\C)NC1CC(OC2CC(O)(C(C)=O)Cc3c(O)c4c(c(O)c32)C(=O)c2c(OC)cccc2C4=O)OC(C)C1O (configuration not stated)
T/C (dose: 3.13 mg/kg/injection, schedule: Q04DX003 (ip), vehicle: distilled water + Tween-80): 131 % of control
T/C (dose: 25.0 mg/kg/injection, schedule: Q04DX003 (ip), vehicle: distilled water + Tween-80): 125 and 131 % of control
T/C (dose: 50.0 mg/kg/injection, schedule: Q04DX003 (ip), vehicle: distilled water + Tween-80): 144 % of control
T/C (dose: 100.0 mg/kg/injection, schedule: Q04DX003 (ip), vehicle: distilled water + Tween-80): 147 % of control
survivor count (dose: 200.0 mg/kg/injection, schedule: Q04DX003 (ip), vehicle: distilled water + Tween-80): 6 of 6 on day 9

Cn1ncc2c(Cl)ncnc21
survivor count (dose: 400.0 mg/kg/injection, schedule: Q01DX009 (ip), vehicle: Klucel (hydroxypropylcellulose) (HPC)): 1 of 6

O=C(NO)c1coc2ccccc2c1=O
survivor count [13]: 0 of 6

O=C(O)c1ccc(Oc2nc3ccccc3s2)cc1
survivor count (dose: 200.0 mg/kg/injection, schedule: Q04DX003 (ip), vehicle: saline with Tween-80): 6 of 6

O=C(O)c1ccc([N+](=O)[O-])o1
survivor count [5]: 1 of 6

OC(CN(Cc1nc2ccccc2[nH]1)Cc1nc2ccccc2[nH]1)CN(Cc1nc2ccccc2[nH]1)Cc1nc2ccccc2[nH]1
survivor count [13]: 5 of 6

COCn1cc(C(N)=O)c(=O)c2c(N)nc(SC)nc21
survivor count (dose: 50.0 mg/kg/injection, schedule: Q04DX002 (ip), vehicle: saline with Tween-80): 6 of 6
survivor count (dose: 100.0 mg/kg/injection, schedule: Q04DX002 (ip), vehicle: saline with Tween-80): 6 of 6

[CH3][Sn]([CH3])([n]1ccnc1)[n]1ccnc1
T/C (dose: 12.5 mg/kg/injection, schedule: Q01DX005 (ip), vehicle: Klucel (hydroxypropylcellulose) (HPC)): 129 % of control
T/C (dose: 25.0 mg/kg/injection, schedule: Q01DX005 (ip), vehicle: Klucel (hydroxypropylcellulose) (HPC)): 128 and 129 % of control
T/C (dose: 50.0 mg/kg/injection, schedule: Q01DX005 (ip), vehicle: Klucel (hydroxypropylcellulose) (HPC)): 129 and 140 % of control
survivor count (dose: 100.0 mg/kg/injection, schedule: Q01DX005 (ip), vehicle: Klucel (hydroxypropylcellulose) (HPC)): 0 of 5
survivor count [8]: 0 of 5
